Results as given in patent US20090263375A1.
No constants are given. Whether binding was seen depends on the method and setting. In cells and extracts the contact can be indirect. Some entries that bind do so weakly or less than the wild type.

Sequences of proteins named here, by UniProt entry; tags and fusion partners are left off.
UniProt Q99755: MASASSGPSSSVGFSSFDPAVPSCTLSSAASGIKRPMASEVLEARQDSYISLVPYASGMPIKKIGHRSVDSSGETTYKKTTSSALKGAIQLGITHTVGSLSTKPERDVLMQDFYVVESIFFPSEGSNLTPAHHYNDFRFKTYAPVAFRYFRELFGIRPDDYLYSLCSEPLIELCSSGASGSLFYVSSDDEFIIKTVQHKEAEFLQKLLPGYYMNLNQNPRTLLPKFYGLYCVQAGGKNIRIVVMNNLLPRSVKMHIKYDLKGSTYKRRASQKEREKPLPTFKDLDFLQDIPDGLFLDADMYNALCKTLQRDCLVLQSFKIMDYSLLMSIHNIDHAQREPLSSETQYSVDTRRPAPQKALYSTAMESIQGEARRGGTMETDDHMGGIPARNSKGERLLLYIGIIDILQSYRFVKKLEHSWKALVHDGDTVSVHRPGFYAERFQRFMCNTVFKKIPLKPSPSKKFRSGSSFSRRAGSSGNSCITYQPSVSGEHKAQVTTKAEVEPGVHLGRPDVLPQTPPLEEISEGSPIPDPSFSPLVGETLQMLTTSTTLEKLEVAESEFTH

Biological target: T1, endogenous Star-PAP (human) (UniProt Q9H6E5)
T1 sequence: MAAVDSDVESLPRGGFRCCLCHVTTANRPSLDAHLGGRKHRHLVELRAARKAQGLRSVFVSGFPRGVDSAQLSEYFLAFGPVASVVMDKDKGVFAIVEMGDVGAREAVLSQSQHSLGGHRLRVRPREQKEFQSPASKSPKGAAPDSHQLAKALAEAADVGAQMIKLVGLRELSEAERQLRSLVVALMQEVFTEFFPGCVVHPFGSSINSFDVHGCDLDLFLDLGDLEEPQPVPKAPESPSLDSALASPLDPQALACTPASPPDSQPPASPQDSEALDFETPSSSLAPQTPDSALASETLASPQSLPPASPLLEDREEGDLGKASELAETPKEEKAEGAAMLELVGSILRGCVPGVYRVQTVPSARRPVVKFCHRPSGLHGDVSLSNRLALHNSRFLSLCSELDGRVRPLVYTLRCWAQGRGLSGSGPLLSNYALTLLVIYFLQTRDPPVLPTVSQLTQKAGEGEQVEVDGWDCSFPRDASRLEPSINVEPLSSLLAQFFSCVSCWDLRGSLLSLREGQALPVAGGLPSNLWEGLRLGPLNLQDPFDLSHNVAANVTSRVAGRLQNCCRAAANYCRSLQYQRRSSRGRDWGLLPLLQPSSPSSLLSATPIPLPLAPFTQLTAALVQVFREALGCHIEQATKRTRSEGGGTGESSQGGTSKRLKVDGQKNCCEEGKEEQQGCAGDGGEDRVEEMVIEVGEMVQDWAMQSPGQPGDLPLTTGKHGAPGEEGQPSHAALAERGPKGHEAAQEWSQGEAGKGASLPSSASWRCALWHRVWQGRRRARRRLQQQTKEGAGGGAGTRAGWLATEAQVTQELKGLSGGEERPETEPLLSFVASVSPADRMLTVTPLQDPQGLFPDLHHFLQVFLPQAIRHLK
Assay: co-immunoprecipitation, western blot

## HA-PIPKIα (from UniProt Q99755 1-562) (enzyme)
  binding: binds
